The record followed here is the supplement of paper PMC11006884.

Protein sequences, listed by entry. Tags and fused reporters are not part of them. Lines headed by an entry give the natural chain unless they say otherwise; changes in a name come on top.
UniProt P17812: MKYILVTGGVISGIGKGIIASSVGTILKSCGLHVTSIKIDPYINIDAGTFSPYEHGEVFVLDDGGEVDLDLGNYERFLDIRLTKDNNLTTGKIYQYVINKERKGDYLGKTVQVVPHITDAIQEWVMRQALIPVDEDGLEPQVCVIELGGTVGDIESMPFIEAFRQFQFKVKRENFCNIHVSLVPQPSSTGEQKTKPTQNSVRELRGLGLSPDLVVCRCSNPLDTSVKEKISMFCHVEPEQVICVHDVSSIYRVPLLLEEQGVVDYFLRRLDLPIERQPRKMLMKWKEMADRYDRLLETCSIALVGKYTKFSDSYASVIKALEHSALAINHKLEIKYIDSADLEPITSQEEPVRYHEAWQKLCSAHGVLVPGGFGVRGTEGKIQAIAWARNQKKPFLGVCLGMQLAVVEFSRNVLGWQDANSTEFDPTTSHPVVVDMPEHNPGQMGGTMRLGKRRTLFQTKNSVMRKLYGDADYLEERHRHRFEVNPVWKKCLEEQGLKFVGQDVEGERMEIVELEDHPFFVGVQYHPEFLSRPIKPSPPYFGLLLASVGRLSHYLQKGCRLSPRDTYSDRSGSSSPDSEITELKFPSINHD
UniProt P11802: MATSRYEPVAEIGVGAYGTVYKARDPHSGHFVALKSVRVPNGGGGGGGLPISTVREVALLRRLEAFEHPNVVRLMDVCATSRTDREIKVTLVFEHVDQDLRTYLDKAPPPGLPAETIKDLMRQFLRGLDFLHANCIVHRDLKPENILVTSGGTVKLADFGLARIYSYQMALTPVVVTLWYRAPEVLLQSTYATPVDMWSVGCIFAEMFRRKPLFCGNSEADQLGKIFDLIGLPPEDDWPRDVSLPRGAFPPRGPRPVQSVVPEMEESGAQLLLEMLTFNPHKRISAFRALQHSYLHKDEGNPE
UniProt P10636, whole entry: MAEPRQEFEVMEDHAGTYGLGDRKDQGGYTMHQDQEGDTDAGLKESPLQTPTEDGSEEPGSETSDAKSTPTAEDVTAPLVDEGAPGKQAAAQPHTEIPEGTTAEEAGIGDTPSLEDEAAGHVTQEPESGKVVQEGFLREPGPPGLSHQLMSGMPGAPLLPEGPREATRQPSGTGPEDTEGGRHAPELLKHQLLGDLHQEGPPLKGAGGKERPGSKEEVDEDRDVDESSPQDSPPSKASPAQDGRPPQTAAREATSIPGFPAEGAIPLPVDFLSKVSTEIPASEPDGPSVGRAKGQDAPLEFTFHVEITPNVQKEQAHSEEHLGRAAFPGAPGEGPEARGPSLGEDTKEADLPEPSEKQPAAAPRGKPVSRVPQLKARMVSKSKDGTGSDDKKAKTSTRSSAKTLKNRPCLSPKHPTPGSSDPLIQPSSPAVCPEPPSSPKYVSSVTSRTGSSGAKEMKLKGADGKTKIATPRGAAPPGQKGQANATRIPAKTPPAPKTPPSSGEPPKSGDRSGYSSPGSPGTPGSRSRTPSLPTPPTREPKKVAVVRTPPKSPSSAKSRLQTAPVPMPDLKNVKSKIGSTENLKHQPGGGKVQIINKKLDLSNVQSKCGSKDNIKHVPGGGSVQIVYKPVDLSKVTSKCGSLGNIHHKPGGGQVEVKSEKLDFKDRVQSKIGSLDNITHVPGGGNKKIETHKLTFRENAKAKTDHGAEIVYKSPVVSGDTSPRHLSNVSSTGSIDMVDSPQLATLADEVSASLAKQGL
UniProt P14618, whole entry, looked up: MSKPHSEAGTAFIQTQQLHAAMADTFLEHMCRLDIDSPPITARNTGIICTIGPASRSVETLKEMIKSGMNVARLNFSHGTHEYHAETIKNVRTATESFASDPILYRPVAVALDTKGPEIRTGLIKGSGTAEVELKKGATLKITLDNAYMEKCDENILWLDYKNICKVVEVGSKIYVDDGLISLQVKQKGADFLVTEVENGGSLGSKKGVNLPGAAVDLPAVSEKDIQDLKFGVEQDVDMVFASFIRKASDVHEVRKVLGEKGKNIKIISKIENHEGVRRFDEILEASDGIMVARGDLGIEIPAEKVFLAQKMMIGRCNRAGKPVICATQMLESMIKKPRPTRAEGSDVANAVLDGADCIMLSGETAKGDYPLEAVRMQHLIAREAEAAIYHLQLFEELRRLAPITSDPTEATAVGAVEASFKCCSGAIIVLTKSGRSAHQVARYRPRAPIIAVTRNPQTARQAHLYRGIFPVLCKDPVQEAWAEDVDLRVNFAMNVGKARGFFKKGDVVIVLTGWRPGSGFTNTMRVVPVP
UniProt P11586, whole entry, looked up: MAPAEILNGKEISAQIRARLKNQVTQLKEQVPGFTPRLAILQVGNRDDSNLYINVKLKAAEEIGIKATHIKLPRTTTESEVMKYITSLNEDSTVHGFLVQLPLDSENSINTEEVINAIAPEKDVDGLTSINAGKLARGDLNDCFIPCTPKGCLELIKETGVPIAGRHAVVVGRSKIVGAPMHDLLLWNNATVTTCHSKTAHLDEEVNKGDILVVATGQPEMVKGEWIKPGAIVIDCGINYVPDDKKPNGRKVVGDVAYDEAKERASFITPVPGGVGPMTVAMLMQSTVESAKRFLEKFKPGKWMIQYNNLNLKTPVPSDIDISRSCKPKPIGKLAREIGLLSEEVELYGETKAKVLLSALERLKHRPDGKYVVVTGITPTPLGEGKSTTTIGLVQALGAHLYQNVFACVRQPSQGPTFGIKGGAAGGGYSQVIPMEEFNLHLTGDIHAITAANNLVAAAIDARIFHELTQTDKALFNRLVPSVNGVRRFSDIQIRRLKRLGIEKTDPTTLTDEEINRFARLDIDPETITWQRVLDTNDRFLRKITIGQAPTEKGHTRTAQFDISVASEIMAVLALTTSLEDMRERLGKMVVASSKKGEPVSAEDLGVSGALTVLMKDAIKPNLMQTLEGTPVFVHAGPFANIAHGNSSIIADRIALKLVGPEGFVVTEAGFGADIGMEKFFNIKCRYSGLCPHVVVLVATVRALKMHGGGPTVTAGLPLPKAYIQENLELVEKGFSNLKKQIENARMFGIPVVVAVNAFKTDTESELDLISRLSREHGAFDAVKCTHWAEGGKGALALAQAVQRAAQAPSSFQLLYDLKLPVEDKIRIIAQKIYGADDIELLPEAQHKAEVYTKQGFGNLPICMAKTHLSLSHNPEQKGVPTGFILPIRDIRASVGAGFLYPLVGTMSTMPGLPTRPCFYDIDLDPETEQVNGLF
UniProt P13995: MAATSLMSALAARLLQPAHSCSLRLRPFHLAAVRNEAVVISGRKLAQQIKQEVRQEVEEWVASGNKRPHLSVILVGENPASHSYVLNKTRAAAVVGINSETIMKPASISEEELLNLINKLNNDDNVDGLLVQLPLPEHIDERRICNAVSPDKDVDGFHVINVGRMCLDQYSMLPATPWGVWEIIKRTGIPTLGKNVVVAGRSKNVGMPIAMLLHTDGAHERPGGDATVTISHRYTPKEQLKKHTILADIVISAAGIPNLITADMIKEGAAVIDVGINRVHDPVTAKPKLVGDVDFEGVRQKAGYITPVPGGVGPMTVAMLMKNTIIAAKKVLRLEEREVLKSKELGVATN
UniProt P11413, whole entry, looked up: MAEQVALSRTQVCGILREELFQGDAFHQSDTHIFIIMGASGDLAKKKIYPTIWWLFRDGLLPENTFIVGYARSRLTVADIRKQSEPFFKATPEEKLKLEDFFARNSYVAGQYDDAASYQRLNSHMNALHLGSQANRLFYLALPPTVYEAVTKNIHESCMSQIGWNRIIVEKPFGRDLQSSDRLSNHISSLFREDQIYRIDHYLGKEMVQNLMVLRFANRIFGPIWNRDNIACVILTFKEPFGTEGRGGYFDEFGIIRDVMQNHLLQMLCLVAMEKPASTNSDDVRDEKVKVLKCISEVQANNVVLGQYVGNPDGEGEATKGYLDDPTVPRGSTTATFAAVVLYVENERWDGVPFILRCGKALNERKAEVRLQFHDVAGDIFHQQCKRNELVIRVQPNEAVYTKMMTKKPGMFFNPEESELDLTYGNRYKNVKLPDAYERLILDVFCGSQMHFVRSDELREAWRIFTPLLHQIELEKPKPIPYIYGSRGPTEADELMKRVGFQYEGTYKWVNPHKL
UniProt P14866: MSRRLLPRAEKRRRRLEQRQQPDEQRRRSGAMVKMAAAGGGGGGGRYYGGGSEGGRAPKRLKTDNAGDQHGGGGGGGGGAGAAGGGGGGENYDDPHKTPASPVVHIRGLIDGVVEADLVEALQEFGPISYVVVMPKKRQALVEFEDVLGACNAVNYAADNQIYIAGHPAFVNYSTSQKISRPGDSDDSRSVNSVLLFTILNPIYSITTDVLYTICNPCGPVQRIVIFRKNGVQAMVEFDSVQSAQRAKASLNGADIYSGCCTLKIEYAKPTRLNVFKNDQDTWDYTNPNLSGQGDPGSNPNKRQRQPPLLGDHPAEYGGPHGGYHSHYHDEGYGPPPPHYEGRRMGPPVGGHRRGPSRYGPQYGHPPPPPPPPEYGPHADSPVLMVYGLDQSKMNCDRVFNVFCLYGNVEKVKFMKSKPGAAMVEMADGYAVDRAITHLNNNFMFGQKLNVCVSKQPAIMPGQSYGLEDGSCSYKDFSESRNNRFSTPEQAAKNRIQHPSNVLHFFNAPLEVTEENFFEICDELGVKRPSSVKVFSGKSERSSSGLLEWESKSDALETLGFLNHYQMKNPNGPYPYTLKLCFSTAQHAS
UniProt P0CG30: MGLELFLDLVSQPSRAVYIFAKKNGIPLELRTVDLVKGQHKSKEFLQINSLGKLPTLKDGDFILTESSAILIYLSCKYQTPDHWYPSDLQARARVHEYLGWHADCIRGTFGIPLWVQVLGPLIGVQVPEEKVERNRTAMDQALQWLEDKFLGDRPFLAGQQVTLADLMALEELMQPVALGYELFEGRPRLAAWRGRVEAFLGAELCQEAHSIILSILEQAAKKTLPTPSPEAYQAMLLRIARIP
UniProt P14854, whole entry: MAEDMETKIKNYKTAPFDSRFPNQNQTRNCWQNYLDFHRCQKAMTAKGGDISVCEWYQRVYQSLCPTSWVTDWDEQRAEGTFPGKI
UniProt P09622, whole entry, looked up: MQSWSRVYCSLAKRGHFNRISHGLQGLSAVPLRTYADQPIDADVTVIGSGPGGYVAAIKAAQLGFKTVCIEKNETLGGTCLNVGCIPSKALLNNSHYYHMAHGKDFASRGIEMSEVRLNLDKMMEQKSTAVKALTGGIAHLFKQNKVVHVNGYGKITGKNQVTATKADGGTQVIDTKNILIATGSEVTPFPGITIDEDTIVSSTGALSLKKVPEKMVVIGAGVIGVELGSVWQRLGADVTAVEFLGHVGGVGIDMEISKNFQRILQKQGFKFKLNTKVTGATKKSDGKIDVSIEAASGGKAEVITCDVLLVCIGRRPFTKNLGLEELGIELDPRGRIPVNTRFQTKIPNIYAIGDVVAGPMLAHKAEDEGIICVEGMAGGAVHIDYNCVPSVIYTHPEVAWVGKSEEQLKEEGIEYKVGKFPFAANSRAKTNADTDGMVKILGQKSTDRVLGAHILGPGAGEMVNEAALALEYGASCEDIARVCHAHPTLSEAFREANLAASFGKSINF
UniProt P17655: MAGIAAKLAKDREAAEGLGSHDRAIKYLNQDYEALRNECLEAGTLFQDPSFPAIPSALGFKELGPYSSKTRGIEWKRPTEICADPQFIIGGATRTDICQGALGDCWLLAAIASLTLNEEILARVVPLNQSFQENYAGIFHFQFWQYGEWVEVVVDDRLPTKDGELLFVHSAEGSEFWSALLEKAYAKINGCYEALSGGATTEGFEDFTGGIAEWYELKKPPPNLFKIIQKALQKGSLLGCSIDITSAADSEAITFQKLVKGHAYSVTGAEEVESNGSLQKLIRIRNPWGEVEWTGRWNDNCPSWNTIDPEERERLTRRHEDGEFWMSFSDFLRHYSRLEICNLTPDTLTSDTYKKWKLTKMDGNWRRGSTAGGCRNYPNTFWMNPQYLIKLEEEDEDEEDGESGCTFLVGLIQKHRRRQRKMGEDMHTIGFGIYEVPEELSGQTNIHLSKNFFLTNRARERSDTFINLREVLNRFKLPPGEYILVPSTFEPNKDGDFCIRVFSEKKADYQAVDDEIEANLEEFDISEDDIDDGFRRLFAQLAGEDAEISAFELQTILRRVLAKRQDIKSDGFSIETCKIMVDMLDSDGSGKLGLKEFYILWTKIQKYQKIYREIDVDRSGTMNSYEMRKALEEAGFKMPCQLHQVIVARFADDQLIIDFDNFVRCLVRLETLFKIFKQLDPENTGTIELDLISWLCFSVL
UniProt P09110: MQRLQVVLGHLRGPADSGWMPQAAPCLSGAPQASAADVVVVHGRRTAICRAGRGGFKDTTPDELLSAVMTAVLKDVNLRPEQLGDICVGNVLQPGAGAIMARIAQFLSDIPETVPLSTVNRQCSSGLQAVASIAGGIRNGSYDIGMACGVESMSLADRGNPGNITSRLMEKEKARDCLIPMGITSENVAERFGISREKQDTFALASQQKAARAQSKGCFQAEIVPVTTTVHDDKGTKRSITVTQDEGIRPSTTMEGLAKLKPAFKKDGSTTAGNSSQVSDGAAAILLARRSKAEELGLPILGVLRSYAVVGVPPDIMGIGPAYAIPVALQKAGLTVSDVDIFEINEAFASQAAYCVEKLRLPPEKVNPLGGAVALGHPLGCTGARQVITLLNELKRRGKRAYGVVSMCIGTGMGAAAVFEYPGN

What follows is the remainder of the data, with few or none of the targets with a hit. This is a noisy data set. This is a selection; strong and weak results do not stand in their true shares.

Compound in this test: COC(=O)/C=C/c1ccccc1 [methyl cinnamate]
Briefly: log2 ratio of iodoacetamide-alkyne labeling of the cysteine site, DMSO over compound (competition); higher = stronger covalent engagement of the cysteine by the compound, active = 1 or more. The following applies: 500 µM; treatment time 1 h; system: HEK293T cell lysate. In outline: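 For each cysteine, the log2 competition ratio is mean control-channel reporter intensity over mean compound-channel reporter intensity. HEK293T lysate (2 mg/mL) was exposed to vehicle or electrophile (500 µM, 1 h, ambient temperature), labelled with iodoacetamide alkyne (1 h), clicked to sCIP-TMT reagents, digested overnight with trypsin at 37 °C, streptavidin-enriched and analysed by Orbitrap Eclipse LC-MS/MS with FAIMS and FragPipe. Cysteines quantified in only one of three replicates, each with duplicate channels, were excluded.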
As for IDE C966 (UniProt P14735), the “log2 ratio of iodoacetamide-alkyne labeling” value (shortened to “log2 ratio”) is inactive: 0.103.

Take UniProt P17812_C176: the “log2 ratio” value was inactive: -0.241. The value for CDK4 C78 (UniProt P11802) was inactive: 0.155. In the case of HNRNPA1 C43 (UniProt P09651), the “log2 ratio” value was inactive: 0.114. CNP C49 (UniProt P09543): the “log2 ratio” value is inactive: -0.154. The value for MAPT C639 (UniProt P10636) was inactive: 0.257; that for UniProt P14618_C474 was inactive: 0.159; that for IMPDH2 C140 (UniProt P12268) was inactive: 0.168. Take HSP90AA1 C481 (UniProt P07900): the “log2 ratio” value was inactive: 0.229. On to EEF2 C136 (UniProt P13639), for which the “log2 ratio” value was inactive: 0.00515.

Regarding MTHFD1 C408 (UniProt P11586), the “log2 ratio” value was inactive: -0.111.

In the case of HSP90B1 C576 (UniProt P14625), the “log2 ratio” value was inactive: -0.0444. The value for MTHFD2 C145 (UniProt P13995) was inactive: 0.0129; that for EEF2 C369 (UniProt P13639) was inactive: 0.106; that for EEF2 C67 (UniProt P13639) was inactive: -0.203. For the target PARP1 C845 (UniProt P09874), the “log2 ratio” value is inactive: 0.243.

As to CNP C158 (UniProt P09543), the “log2 ratio” value was inactive: 0.155. In the case of G6PD C446 (UniProt P11413), the “log2 ratio” value is inactive: 0.0414. The result for PARP1 C24 (UniProt P09874) reads inactive: 0.0337. For the target SNRPB C19 (UniProt P14678), the “log2 ratio” value is inactive: 0.231.

RPS2 C229 (UniProt P15880): the “log2 ratio” value is inactive: 0.145.

Consider RPS2 C143 (UniProt P15880), for which the “log2 ratio” value is inactive: 0.107. The value for SLC25A6 C257 (UniProt P12236) was inactive: 0.128; that for HSPD1 C237 (UniProt P10809) was inactive: 0.247; that for HNRNPL C151 (UniProt P14866) was inactive: 0.0911. The value for UniProt P0CG30_C105 was inactive: 0.156. The value for PLS3 C33 (UniProt P13797) was inactive: 0.19. Take NFIC C88 (UniProt P08651): the “log2 ratio” value was inactive: 0.2. Consider MTHFD1 C785 (UniProt P11586), for which the “log2 ratio” value was inactive: -0.066. On to COX6B1 C65 (UniProt P14854), for which the “log2 ratio” value is inactive: -0.067. With GYS1 C699 (UniProt P13807), the “log2 ratio” value is inactive: 0.411.

Regarding DLD C85 (UniProt P09622), the “log2 ratio” value was inactive: 0.131. The result for PABPC1 C128 (UniProt P11940) reads inactive: 0.0626; that for MTHFD1 C143 (UniProt P11586), inactive: -0.0108. As for CAPN2 C301 (UniProt P17655), the “log2 ratio” value is inactive: 0.204. The result for UniProt P08240_C363 reads inactive: -0.13; that for ACAA1 C87 (UniProt P09110), inactive: 0.289.
